Measurements reported in the supplement of paper PMC12819154, “High-throughput peptide-centric local stability assay extends protein–ligand identification to membrane proteins, tissues and bacteria” (Nature Structural & Molecular Biology, 2025).
The other results are listed elsewhere or left out. Most entries show no effect beyond the scatter of the controls.

Sequences of proteins named here, by UniProt entry; tags and fusion partners are left off. A change or cut given only in a name is not applied to a line headed by its entry.
UniProt Q8N302: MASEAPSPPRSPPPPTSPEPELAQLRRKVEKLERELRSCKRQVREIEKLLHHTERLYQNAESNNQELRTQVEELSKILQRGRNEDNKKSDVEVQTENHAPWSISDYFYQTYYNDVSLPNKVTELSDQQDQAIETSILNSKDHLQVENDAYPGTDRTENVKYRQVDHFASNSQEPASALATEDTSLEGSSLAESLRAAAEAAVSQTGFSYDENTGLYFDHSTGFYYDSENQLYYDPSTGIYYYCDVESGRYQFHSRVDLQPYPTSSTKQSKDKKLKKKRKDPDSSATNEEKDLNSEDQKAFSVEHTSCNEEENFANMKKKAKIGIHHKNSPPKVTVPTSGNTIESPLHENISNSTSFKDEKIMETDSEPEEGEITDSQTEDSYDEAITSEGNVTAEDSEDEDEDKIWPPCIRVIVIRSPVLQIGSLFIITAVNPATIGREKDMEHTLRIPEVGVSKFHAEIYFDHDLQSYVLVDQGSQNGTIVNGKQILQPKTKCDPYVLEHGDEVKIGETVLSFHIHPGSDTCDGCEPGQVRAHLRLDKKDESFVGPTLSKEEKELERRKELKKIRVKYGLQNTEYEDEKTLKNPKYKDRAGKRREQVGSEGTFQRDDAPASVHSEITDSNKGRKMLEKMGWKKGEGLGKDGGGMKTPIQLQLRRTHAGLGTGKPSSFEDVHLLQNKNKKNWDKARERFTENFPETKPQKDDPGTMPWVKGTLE
UniProt Q8N371: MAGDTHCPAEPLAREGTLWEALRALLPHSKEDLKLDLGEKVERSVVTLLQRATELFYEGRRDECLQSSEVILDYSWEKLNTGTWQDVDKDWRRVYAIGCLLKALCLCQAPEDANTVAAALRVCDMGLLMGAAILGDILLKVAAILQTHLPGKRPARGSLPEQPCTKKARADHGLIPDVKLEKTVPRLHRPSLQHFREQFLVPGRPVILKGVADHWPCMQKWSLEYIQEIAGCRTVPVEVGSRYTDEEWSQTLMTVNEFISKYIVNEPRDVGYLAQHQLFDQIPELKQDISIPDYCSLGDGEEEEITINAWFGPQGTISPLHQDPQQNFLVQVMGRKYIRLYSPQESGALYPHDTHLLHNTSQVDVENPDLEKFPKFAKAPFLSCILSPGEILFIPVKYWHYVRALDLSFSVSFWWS
UniProt Q8N1B4: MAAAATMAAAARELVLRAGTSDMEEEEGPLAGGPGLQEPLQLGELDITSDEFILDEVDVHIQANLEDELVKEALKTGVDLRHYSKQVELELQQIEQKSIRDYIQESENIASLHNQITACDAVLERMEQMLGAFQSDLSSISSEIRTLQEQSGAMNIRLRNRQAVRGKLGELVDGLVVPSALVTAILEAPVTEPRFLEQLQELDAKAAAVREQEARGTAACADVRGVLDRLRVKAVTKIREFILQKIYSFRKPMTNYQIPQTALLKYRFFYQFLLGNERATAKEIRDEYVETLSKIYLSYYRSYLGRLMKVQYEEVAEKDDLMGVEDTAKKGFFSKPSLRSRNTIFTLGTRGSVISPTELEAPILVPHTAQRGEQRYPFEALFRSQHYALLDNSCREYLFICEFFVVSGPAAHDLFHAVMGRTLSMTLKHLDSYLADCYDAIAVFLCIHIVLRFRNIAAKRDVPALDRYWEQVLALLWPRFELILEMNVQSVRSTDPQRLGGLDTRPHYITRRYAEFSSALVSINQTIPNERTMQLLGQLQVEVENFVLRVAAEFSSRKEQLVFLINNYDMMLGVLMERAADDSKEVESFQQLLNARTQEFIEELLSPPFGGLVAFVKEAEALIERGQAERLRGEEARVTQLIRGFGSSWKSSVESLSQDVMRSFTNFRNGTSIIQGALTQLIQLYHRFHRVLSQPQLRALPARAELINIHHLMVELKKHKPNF
UniProt Q8N5H3: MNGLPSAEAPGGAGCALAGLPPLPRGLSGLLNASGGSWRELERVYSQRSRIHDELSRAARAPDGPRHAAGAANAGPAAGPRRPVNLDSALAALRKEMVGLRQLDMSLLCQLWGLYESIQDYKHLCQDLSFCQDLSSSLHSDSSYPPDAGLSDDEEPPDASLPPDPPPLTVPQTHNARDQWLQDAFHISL
UniProt Q8NFJ9: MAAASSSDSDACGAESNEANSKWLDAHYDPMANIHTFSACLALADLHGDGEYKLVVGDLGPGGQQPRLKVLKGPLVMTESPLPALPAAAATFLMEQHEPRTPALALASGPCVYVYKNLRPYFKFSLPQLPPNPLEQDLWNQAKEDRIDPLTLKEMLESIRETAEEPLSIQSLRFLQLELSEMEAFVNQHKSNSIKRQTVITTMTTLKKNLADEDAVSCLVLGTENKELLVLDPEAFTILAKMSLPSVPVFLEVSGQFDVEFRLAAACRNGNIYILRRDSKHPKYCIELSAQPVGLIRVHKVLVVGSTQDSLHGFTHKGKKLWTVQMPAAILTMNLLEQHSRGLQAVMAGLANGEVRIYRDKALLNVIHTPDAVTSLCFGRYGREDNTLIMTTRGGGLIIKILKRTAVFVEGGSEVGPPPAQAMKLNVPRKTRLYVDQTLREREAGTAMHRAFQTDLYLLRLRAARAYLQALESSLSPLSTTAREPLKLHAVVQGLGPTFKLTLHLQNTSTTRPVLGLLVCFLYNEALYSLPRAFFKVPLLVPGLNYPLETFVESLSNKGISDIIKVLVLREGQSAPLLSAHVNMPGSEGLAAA
UniProt Q8NI27: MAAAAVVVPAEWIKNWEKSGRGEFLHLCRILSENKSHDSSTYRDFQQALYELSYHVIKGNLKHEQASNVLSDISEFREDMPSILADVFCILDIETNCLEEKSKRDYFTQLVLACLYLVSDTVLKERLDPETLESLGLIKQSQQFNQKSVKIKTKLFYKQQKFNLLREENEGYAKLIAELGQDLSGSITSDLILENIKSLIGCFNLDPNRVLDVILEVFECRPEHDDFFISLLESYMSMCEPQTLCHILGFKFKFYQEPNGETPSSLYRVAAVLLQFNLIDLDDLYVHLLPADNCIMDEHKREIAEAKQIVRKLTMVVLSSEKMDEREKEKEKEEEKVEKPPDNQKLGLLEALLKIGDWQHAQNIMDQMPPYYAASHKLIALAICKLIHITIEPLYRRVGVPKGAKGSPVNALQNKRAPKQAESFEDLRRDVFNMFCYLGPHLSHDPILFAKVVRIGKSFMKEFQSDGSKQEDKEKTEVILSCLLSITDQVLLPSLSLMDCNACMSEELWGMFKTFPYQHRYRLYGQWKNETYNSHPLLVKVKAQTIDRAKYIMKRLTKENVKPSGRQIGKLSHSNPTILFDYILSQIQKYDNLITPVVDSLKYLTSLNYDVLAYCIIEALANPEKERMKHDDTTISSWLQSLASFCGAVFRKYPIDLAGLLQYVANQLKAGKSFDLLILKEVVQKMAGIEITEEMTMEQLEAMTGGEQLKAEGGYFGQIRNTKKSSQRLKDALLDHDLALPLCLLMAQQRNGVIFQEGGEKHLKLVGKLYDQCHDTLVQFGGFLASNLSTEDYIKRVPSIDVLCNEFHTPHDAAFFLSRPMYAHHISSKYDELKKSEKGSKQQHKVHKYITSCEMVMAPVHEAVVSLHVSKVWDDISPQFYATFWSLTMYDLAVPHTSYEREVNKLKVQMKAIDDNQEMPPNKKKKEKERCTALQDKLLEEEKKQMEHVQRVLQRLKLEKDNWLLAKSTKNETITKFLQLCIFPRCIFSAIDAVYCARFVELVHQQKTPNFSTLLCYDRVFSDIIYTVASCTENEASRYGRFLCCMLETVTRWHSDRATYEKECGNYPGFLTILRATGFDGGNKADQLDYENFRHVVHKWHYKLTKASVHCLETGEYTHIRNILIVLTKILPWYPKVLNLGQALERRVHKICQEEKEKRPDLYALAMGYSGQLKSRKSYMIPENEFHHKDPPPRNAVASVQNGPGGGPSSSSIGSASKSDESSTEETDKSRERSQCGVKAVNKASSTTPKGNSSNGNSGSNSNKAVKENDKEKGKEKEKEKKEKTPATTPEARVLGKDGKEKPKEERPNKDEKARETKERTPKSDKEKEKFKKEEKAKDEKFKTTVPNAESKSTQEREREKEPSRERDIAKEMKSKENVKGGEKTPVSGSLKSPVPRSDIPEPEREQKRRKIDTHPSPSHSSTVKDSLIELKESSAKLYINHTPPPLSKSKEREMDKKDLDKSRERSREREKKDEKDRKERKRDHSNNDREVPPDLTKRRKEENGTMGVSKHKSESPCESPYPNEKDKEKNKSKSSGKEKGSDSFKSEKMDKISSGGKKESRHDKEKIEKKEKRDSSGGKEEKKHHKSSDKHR
UniProt Q8NHG8: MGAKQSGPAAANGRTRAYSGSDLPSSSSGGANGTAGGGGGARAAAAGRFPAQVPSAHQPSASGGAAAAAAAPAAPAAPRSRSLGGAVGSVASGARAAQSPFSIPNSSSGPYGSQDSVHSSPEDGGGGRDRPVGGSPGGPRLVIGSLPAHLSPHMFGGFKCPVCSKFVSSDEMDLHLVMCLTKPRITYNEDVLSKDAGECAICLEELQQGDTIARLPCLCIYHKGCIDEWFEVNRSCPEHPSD
UniProt Q8N883: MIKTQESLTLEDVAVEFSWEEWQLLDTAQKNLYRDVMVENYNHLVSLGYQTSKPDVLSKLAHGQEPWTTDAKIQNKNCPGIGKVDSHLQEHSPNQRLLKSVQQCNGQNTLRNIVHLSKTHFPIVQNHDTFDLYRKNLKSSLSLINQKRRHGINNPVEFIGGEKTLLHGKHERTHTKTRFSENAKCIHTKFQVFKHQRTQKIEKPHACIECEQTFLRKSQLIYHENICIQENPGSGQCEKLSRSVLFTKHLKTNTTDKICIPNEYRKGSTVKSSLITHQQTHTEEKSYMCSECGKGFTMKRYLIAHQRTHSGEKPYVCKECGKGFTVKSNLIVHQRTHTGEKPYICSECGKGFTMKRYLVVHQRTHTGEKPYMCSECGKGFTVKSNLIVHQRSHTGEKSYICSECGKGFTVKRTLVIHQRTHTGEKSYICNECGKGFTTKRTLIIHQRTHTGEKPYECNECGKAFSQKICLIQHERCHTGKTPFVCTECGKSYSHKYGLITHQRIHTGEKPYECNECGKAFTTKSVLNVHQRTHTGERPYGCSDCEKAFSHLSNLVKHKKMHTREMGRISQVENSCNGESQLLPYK
UniProt Q8NDL9: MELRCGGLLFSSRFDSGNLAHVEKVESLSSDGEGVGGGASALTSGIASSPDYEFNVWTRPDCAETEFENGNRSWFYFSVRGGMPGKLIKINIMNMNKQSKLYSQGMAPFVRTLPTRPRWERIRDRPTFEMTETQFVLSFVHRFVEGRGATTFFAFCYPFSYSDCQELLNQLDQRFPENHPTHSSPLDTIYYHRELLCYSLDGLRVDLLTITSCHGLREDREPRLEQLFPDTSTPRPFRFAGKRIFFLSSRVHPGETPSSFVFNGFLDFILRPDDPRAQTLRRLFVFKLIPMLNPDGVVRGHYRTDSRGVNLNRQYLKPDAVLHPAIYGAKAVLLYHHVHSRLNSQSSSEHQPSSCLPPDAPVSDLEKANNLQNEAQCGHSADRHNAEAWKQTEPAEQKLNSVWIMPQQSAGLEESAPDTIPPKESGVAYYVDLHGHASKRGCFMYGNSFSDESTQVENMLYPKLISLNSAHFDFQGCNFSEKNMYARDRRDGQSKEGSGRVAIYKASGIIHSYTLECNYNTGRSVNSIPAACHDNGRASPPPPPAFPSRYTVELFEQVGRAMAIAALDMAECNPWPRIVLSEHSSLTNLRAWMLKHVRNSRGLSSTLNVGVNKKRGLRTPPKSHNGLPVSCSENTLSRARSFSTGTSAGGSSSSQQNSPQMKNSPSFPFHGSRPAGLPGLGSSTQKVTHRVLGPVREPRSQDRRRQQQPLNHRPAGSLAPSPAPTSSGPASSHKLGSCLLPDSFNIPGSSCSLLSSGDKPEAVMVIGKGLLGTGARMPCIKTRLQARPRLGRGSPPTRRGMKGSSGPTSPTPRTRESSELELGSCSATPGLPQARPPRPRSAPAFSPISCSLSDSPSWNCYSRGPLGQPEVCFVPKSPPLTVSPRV
UniProt Q8NHZ8, whole entry: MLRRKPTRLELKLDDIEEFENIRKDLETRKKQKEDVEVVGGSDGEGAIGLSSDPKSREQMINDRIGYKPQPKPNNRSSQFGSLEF
UniProt Q8N6I1: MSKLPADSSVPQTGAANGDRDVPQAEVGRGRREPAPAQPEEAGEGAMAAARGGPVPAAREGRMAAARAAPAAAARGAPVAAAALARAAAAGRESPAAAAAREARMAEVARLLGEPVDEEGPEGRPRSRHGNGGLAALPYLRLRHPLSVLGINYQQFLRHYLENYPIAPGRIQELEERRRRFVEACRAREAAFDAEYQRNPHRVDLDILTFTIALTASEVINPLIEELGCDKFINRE

Compound: Cc1nc(Nc2ncc(C(=O)Nc3c(C)cccc3Cl)s2)cc(N2CCN(CCO)CC2)n1 [dasatinib]
Assay: log2 fold change of tryptic peptide abundance, ligand vs vehicle (limited proteolysis) (log2 ratio); higher = more trypsin-susceptible (destabilized)
Details: ligand concentration: 5 uM; sample: K562 cleared lysate

Q: How did the log2 fold change turn out when “WDR36 (peptide sequence: VVNLGVLAQK, peptide start residue: 815) (UniProt Q8NI36)” was run?
A: 0.432

Q: How did the log2 fold change turn out when “AGGF1 (peptide sequence: DESFVGPTLSKEEK, peptide start residue: 541) (UniProt Q8N302)” was run?
A: -0.391

Q: “UniProt Q8N371 (peptide sequence: ADHGLIPDVKLEK, peptide start residue: 170)” was tested. Which log2 fold change did it give?
A: -0.469

Q: With “UniProt Q8NEB9 (peptide sequence: NGLEPTKK, peptide start residue: 413)” as the target, how does the log2 fold change read?
A: 0.293

Q: For “VPS52 (peptide sequence: EIRDEYVETLSK, peptide start residue: 283) (UniProt Q8N1B4)”, which log2 fold change is on record?
A: 0.0926

Q: How did the log2 fold change turn out when “UniProt Q8N5H3 (peptide sequence: HAAGAANAGPAAGPR, peptide start residue: 67)” was run?
A: -0.43

Q: For “UniProt Q8NG31 (peptide sequence: QNTAFQDLSINSADKIHITR, peptide start residue: 394)”, which log2 fold change is on record?
A: 0.149

Q: “UniProt Q8NFJ9 (peptide sequence: GGGLIIK, peptide start residue: 394)” was tested. Which log2 fold change did it give?
A: -0.103

Q: “THOC2 (peptide sequence: YITSCEMVMAPVHEAVVSLHVSK, peptide start residue: 849) (UniProt Q8NI27)” was tested. Which log2 fold change did it give?
A: 0.223

Q: Which log2 fold change does the source give for “WDR19 (peptide sequence: DCGAILENMK, peptide start residue: 845) (UniProt Q8NEZ3)” here?
A: 0.379

Q: With “ZNRF2 (peptide sequence: SLGGAVGSVASGAR, peptide start residue: 82) (UniProt Q8NHG8)” as the target, how does the log2 fold change read?
A: -0.0711

Q: How did the log2 fold change turn out when “SUPT20H (peptide sequence: AGNCVDMWK, peptide start residue: 286) (UniProt Q8NEM7)” was run?
A: -0.369

Q: How did the log2 fold change turn out when “UniProt Q8N883 (peptide sequence: LAHGQEPWTTDAK, peptide start residue: 60)” was run?
A: -0.152

Q: With “UniProt Q8N8K9 (peptide sequence: AKLDCNR, peptide start residue: 109)” as the target, how does the log2 fold change read?
A: -0.51

Q: For “AGBL5 (peptide sequence: ANNLQNEAQCGHSADR, peptide start residue: 368) (UniProt Q8NDL9)”, which log2 fold change is on record?
A: 0.152

Q: Which log2 fold change does the source give for “CDC26 (peptide sequence: LDDIEEFENIRK, peptide start residue: 13) (UniProt Q8NHZ8)” here?
A: -0.133

Q: Which log2 fold change does the source give for “UniProt Q8N6I1 (peptide sequence: HGNGGLAALPYLR, peptide start residue: 129)” here?
A: -0.164
